# Results from PubChem BioAssay AID493014 (National Center for Advancing Translational Sciences (NCATS), 2011).
# Among all 340,000 compounds or so, about 170 (0.05%) were called active. Inconclusive results, whose numbers are uncertain, are shown with a selection of clear calls. The call rests on the fitted dose curve; in most records, active means well fitted inhibition curve with a large enough effect in the signal ratio, with a control signal flat (not every such curve was filed as active); inconclusive means small, poorly fitted or top-dose-only effect, or effect the other way, or a change in a side signal; inactive means flat fitted curve, though single readings scatter; the % refers to the signal ratio. Where the call is inconclusive, the potency comes from a doubtful curve fit.
# Assay: qHTS Assay to Find Inhibitors of Chronic Active B-Cell Receptor Signaling;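 on activity change, negative = inhibition: plate controls were basal doxycycline-induced cells for no effect and cells given 10 µM MG132 for full effect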
# Conditions: ABC-DLBCL IkBa-CBG/CBR reporter, luminescence ratio (green luciferase fused to IkBa over red control in TMD8 lymphoma cells), 4 h; activity change, negative = inhibition: at 46.1 µM (top of the series)
# Outline: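 Compounds up to 46 uM were incubated four hours with TMD8 cells whose green CBG68 luciferase is fused to IkappaBalpha; red CBR luminescence normalised the signal, and concentration-effect curves were fitted to fusion, red and ratio data.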
# Potency means the concentration at half of the fitted maximal effect.
Structure (SMILES),"activity change, negative = inhibition",Potency
CCOC(=O)c1csc(NC(=O)c2ccc(OCC)cc2)n1,inconclusive: 1.38%,
Cc1cc(C)cc(OCCNC(=O)C2CCN(S(=O)(=O)c3ccccc3)CC2)c1,inactive: 0.572%,
CC(OC(=O)c1cc2sccc2n1C)C(=O)NC(C)(C)C (stereo not drawn),,"inconclusive: 0.398 µM [falling, partial curve, poor fit]"
COc1ccccc1-c1ccc(Nc2ccc(C(=O)N3CCOCC3)cc2)nn1,,"inconclusive: 4.11 µM [falling, partial curve]"
CN(c1ccccc1)S(=O)(=O)c1ccc(Cl)c(C(=O)Nc2ccc(-c3nc4ccccc4[nH]3)cc2)c1,,"inconclusive: 11.6 µM [falling, partial curve]"
Cn1cnnc1SCC(=O)Nc1ccc(S(=O)(=O)N2CCCC2)cc1,,"inconclusive: 6.51 µM [falling, single point]"
O=C(O)c1ccccc1Nc1cccc(OCc2ccc3ccccc3n2)c1,,"inconclusive: 29.1 µM [rising, single point]"
O=C(O)/C=C/C(=O)NC1CCS(=O)(=O)C1 (stereo not drawn),inconclusive: 14.8%,
O=C(CSc1nc2ccccc2[nH]1)Nc1ccc2c(c1)CCC2,inconclusive: -17.5%,
Cc1[nH]c2ccc(F)cc2c1CCN1C(=O)OC(C)(C)C1(C)O (stereo not drawn),inconclusive: 0.63%,
O=C1COc2ccc(C(=O)COC(=O)/C=C/c3ccc(Br)o3)cc2N1,inconclusive: 19.9%,
CN(C)CC/C=C1/c2ccccc2COc2ccccc21,inconclusive: -4.69%,
O=C(Oc1ccc(-c2nnco2)cc1)N(c1ccccc1)c1ccccc1,inconclusive: -10.2%,
CC1=C/C(=C(/c2ccc(O)c(C)c2)c2ccccc2S(=O)(=O)O)C=CC1=O,inconclusive: 7.26%,
O=C(NCc1ccccc1)C(c1ccc(Cl)cc1)N(C(=O)c1csnn1)C1CC1 (stereo not drawn),inactive: 3.92%,
O=C1CSC(=S)N1c1ccc(O)cc1,inconclusive: -15.6%,
Cc1cc(C(=O)Nc2nnc(C3CC3)s2)c(C)s1,,"inconclusive: 23.1 µM [falling, partial curve]"
CN(Cc1ccccc1)C(=O)CCCn1c(=O)c2cccn2c2cccnc21,inconclusive: -0.861%,
COc1ccc(NC2CCCN(C(=O)c3csc(C)n3)C2)cc1 (stereo not drawn),inactive: 0.737%,
O=C(NOCc1ccccc1)c1ccc(Cl)cc1Cl,inconclusive: 6.23%,
CN(C(=O)CSc1nnc(N)s1)C1CCCCC1,inconclusive: 2.65%,
O=C1c2ccccc2C(=O)N1CSc1nnc2c3ccccc3n(CCc3ccccc3)c2n1,inactive: 0.325%,

Structure (SMILES),"activity change, negative = inhibition",Potency
CCO[C@H]1OC(C(=O)N2CCCCCCC2)=C[C@@H](c2csc3ccccc23)[C@@H]1CCCO,inconclusive: 14.1%,
COc1ccccc1N1CC(C(=O)Nc2ccc(N3CCOCC3)cc2)CC1=O (stereo not drawn),inconclusive: -2.79%,
CC(C)c1ccc(C(=O)NCc2ccc(Cl)cc2)cc1,inconclusive: 14%,
COc1cc(C(N)=O)cc(Cl)c1OCc1ccccc1,inconclusive: 0.728%,
C=CCc1cc(Cl)ccc1OCCNCCN1CCOCC1,inactive: 10.7%,
O=C1N/C(=C/c2cccs2)C(=O)N1Cc1ccccc1F,inconclusive: 12.2%,
Cc1ccc(-n2cc(CN3CCC(CO)(Cc4ccccc4)CC3)cn2)cc1,inconclusive: -32.3%,
COC(=O)c1ccc(-c2nc3cc(N)ccc3o2)cc1,,"inconclusive: 2.06 µM [rising, full curve]"
O=C(CSc1ccccc1)Nc1nccs1,inactive: 11.2%,
O=c1oc2ccccc2c(N2CCCCC2)c1[N+](=O)[O-],inconclusive: -11.3%,
COc1ccc(CC(=O)NCc2n[nH]c(=S)n2-c2ccc(F)cc2)cc1,inactive: 4.99%,
S=C(NC1CC1)NC1CCCc2ccccc21 (stereo not drawn),,"inconclusive: 7.94 µM [falling, partial curve]"
COc1ccc2[nH]c(C)c(CCNC(=S)Nc3ccc(F)cc3)c2c1,inconclusive: -14.8%,
COc1ccc(OC)c(NC(=O)Cc2coc3cc(C)cc(C)c23)c1,inactive: -24.3%,
COc1ccc(Cl)cc1NC(=O)CCCNC(=O)c1ccc(Cl)cc1,inconclusive: -0.247%,
COc1ccc(CNC(=O)c2cc(-c3ccc(OC)c(OC)c3)nc3n[nH]c(-c4ccc(C)cc4)c23)cc1,inactive: 16.6%,
O=C(c1ccc(Br)o1)N1CCN(c2ccccn2)CC1,inconclusive: 13.9%,
C[C@H](NC(=O)c1nc[nH]c1C(=O)N[C@@H](C)C(=O)OC(C)(C)C)C(=O)OCc1ccccc1,inactive: 5.06%,
CNC(=O)c1cc2cc(OC)ccc2n1CCN(Cc1ccccc1)Cc1ccccc1,,"inconclusive: 0.146 µM [falling, full curve, poor fit]"
O=C(Nc1ccc(Cl)cc1Cl)C1=Cc2ccccc2OC1,inconclusive: -0.0035%,
CCC(C(=O)NCc1ccc(F)cc1)N(CCc1ccccc1)C(=O)c1snc(C(N)=O)c1N (stereo not drawn),inconclusive: -0.644%,

# Random excerpt: 2 entries already listed, in no set order.
Structure (SMILES),"activity change, negative = inhibition",Potency
COc1ccc(OC)c(NC(=O)Cc2coc3cc(C)cc(C)c23)c1,inactive: -24.3%,
COc1ccc(Cl)cc1NC(=O)CCCNC(=O)c1ccc(Cl)cc1,inconclusive: -0.247%,
